Values of other authors in patent US11535584B2, “Homovanillinic acid ester, in particular for creating a warm and/or pungent sensation” (SYMRISE AG, priority 2014, dated 2022).
For at least one compound, name, drawing or mass did not settle the structure.

Conditions: cited from earlier work

O=C(/C=C/C=C/c1ccc2c(c1)OCO2)N1CCCCC1 [piperine, 1-piperoyl piperidine]
Relative pungency as compared to capsaicin: about 1%
